No constants are given. Whether binding was seen depends on the method and setting. Binding seen in cells or lysates may run through a third protein. Some results given as binding are weak or reduced against the parent protein; the word gives no strength. For some assays here: Tags and fused reporters may be left off the sequences shown.

Chains of the proteins cited; added tags and fusions are not shown.
UniProt Q04206: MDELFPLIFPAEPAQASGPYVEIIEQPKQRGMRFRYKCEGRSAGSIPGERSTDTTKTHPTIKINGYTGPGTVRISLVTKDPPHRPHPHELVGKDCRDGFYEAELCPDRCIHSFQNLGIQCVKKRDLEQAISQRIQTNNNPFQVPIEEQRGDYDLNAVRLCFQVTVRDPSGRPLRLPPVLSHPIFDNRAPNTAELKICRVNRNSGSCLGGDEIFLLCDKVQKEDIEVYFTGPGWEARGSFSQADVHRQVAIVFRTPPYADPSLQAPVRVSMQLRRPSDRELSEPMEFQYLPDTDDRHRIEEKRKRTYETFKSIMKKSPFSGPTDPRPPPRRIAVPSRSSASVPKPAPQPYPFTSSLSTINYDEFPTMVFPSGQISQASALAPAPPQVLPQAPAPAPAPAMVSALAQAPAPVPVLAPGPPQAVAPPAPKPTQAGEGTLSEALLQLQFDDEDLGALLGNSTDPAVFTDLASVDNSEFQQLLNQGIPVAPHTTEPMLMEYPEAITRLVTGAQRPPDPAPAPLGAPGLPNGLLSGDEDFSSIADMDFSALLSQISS

We go through two substances from PMC4558130.

Experiment [1] deals with T1, endogenous RRAD (human (endogenous in H1299)) (UniProt P55042).
T1 sequence: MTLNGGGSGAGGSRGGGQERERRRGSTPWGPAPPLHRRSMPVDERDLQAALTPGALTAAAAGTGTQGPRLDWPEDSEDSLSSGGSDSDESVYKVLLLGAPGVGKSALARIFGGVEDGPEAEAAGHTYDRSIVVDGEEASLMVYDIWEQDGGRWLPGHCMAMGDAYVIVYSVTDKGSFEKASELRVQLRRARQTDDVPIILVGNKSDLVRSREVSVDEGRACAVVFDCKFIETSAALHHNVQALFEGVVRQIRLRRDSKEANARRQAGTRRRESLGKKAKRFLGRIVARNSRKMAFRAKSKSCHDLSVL
In words: co-IP; endogenous RRAD and endogenous p65 in H1299 cells; IP antibody not stated.

Experiment [2] deals with T2, RRAD-Flag (wild type) (human) (UniProt P55042).
T2 sequence: T1 sequence
The experiment in a line: co-IP; H1299 cells expressing RRAD-Flag (WT or deletion mutant) and p65-HA; lysates in NP-40 buffer (50mM Tris-HCl pH 7.5, 1% NP-40, 150mM NaCl, 5 mM EDTA); IP with anti-Flag M2 or anti-HA overnight; Western blot. For orientation: A western blot detects proteins with antibodies after separation by electrophoresis.

In the case of “endogenous p65 (from UniProt Q04206 1-551)”, in experiment [1], the binding result is listed as “binds”.

Consider p65-HA (from UniProt Q04206 1-551), for which, in experiment [2], the binding result is on record as “binds”.
